Data as given in PubChem BioAssay AID1259308 (NCATS, 2017).

- Test: 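Knock-downs that increase output of a recombinant reporter protein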 (primary screen)
- System: human HEK293 embryonic kidney cells stably expressing firefly luciferase (HEK-CMV-Luc2-Hygro)
- Reagent: single siRNA against human genes, 0.8 pmol siRNA per well
- Timing: 72 h
- Detection: 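Luciferase light (ONE-Glo) measured on one replicate plate set and viability (CellTiter-Glo) on the other, scaled to a negative control siRNA, with robust z-scores and luciferase per cell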
- Scale: total luciferase, z-score: higher = more reporter protein produced
- Active means: 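Active when the median/MAD z-score for overall luciferase is greater than 3; a gene was taken forward for validation with new siRNAs if at least two of its three siRNAs passed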
- Calls: active = raised luciferase; inactive = no rise
The whole screen tested about 59,000 reagents; this is an unselected part. Over the whole deposit, about 1,510 (2.6%) were called active. 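Calls use total luciferase alone and ignore viability, so some active siRNAs may act by altering cell number.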 Reagents against one gene are numbered here. Further read-outs or replicates are left out here.

gene symbol | reagent no. | total luciferase, z-score | outcome
MLN (motilin) | 1 | -0.682 | inactive
MLN (motilin) | 2 | -0.133 | inactive
MLN (motilin) | 3 | -0.00694 | inactive
ARRDC1-AS1 (ARRDC1 antisense RNA 1) | 1 | 0.95 | inactive
ARRDC1-AS1 (ARRDC1 antisense RNA 1) | 2 | 0.836 | inactive
ARRDC1-AS1 (ARRDC1 antisense RNA 1) | 3 | -0.706 | inactive
KRT1 (keratin 1) | 1 | -0.0605 | inactive
KRT1 (keratin 1) | 2 | -0.841 | inactive
KRT1 (keratin 1) | 3 | -0.799 | inactive
ARMCX3 (armadillo repeat containing X-linked 3) | 1 | -0.496 | inactive
ARMCX3 (armadillo repeat containing X-linked 3) | 2 | -0.524 | inactive
ARMCX3 (armadillo repeat containing X-linked 3) | 3 | -0.196 | inactive
NSMCE3 (NSE3 component of SMC5/6 complex) | 1 | 1.62 | inactive
NSMCE3 (NSE3 component of SMC5/6 complex) | 2 | 0.93 | inactive
NSMCE3 (NSE3 component of SMC5/6 complex) | 3 | 0.588 | inactive
APC2 (APC regulator of Wnt signaling pathway 2) | 1 | 2.62 | inactive
APC2 (APC regulator of Wnt signaling pathway 2) | 2 | -0.216 | inactive
APC2 (APC regulator of Wnt signaling pathway 2) | 3 | -0.734 | inactive
IDH3B | 1 | -0.458 | inactive
IDH3B | 2 | -0.504 | inactive
IDH3B | 3 | -0.0242 | inactive
TAS2R45 (taste 2 receptor member 45) | 1 | 1.01 | inactive
TAS2R45 (taste 2 receptor member 45) | 2 | -0.39 | inactive
TAS2R45 (taste 2 receptor member 45) | 3 | 0.827 | inactive
